# The supplement of paper PMC12819154, “High-throughput peptide-centric local stability assay extends protein–ligand identification to membrane proteins, tissues and bacteria” (Nature Structural & Molecular Biology, 2025)
# Protein sequences, listed by entry. Tags and fused reporters are not part of them. Lines headed by an entry give the natural chain unless they say otherwise; changes in a name come on top.
# UniProt Q7Z6J8: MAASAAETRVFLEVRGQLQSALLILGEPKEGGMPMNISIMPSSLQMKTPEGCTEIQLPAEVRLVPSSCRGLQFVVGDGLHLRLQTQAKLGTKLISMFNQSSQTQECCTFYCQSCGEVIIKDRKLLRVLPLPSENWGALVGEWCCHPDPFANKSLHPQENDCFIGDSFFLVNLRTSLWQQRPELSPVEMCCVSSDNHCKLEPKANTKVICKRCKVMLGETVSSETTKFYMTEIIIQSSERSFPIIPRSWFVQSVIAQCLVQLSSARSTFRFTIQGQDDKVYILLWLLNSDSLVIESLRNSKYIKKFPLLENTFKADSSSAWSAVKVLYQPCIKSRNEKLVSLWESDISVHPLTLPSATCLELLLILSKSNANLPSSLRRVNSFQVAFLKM
# UniProt Q7Z5Y7: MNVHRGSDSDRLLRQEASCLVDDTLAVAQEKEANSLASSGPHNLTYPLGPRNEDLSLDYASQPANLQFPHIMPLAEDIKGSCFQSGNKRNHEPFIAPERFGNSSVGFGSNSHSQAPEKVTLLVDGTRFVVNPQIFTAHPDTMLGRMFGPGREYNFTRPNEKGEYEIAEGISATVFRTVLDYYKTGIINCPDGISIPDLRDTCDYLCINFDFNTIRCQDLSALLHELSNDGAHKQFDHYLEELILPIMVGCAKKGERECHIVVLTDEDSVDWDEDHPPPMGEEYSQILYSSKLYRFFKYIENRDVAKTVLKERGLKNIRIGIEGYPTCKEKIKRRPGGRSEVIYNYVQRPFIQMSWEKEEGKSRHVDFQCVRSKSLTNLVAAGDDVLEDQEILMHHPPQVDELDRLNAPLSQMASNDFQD
# UniProt Q6ZMI0: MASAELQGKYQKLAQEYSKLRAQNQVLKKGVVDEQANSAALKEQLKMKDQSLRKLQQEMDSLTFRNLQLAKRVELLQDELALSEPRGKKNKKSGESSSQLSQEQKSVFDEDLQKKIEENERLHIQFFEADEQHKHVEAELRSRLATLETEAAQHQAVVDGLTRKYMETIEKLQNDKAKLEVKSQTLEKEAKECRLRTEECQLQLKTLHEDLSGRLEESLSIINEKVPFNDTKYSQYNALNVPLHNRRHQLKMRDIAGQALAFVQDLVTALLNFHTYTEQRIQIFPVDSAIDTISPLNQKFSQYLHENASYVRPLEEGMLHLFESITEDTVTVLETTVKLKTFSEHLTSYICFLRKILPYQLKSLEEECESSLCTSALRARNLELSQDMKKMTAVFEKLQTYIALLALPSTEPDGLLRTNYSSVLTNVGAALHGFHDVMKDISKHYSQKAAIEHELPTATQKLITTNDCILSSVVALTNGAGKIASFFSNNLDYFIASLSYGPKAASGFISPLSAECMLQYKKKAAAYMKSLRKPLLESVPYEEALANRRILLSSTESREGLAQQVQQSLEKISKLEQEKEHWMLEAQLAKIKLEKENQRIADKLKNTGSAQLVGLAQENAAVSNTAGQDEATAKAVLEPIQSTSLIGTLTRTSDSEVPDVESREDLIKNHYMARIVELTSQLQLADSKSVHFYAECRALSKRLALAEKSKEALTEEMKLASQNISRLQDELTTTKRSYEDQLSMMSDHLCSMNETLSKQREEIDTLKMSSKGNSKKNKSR
# UniProt Q7Z4I7: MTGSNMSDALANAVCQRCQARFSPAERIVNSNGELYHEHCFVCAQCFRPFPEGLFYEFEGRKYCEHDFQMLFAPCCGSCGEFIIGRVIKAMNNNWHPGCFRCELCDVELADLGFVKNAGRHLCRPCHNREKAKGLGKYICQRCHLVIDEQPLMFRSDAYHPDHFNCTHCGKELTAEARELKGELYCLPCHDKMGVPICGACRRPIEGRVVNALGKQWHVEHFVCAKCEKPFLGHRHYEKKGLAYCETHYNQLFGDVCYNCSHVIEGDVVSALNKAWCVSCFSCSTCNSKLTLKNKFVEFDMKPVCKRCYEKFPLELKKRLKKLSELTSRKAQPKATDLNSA
# UniProt Q6UX04: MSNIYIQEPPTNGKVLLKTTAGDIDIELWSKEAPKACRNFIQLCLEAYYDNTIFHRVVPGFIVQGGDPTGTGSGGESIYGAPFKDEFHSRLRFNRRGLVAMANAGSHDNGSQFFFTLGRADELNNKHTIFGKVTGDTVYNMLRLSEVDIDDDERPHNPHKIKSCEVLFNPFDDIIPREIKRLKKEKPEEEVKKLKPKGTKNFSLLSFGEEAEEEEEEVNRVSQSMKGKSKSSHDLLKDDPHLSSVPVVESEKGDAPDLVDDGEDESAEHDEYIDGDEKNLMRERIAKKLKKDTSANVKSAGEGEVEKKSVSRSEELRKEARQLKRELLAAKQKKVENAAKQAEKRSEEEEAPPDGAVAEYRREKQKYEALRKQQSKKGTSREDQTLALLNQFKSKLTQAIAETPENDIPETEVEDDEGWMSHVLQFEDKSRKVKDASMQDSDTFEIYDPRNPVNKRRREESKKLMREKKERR
# UniProt Q7RTP6, whole entry: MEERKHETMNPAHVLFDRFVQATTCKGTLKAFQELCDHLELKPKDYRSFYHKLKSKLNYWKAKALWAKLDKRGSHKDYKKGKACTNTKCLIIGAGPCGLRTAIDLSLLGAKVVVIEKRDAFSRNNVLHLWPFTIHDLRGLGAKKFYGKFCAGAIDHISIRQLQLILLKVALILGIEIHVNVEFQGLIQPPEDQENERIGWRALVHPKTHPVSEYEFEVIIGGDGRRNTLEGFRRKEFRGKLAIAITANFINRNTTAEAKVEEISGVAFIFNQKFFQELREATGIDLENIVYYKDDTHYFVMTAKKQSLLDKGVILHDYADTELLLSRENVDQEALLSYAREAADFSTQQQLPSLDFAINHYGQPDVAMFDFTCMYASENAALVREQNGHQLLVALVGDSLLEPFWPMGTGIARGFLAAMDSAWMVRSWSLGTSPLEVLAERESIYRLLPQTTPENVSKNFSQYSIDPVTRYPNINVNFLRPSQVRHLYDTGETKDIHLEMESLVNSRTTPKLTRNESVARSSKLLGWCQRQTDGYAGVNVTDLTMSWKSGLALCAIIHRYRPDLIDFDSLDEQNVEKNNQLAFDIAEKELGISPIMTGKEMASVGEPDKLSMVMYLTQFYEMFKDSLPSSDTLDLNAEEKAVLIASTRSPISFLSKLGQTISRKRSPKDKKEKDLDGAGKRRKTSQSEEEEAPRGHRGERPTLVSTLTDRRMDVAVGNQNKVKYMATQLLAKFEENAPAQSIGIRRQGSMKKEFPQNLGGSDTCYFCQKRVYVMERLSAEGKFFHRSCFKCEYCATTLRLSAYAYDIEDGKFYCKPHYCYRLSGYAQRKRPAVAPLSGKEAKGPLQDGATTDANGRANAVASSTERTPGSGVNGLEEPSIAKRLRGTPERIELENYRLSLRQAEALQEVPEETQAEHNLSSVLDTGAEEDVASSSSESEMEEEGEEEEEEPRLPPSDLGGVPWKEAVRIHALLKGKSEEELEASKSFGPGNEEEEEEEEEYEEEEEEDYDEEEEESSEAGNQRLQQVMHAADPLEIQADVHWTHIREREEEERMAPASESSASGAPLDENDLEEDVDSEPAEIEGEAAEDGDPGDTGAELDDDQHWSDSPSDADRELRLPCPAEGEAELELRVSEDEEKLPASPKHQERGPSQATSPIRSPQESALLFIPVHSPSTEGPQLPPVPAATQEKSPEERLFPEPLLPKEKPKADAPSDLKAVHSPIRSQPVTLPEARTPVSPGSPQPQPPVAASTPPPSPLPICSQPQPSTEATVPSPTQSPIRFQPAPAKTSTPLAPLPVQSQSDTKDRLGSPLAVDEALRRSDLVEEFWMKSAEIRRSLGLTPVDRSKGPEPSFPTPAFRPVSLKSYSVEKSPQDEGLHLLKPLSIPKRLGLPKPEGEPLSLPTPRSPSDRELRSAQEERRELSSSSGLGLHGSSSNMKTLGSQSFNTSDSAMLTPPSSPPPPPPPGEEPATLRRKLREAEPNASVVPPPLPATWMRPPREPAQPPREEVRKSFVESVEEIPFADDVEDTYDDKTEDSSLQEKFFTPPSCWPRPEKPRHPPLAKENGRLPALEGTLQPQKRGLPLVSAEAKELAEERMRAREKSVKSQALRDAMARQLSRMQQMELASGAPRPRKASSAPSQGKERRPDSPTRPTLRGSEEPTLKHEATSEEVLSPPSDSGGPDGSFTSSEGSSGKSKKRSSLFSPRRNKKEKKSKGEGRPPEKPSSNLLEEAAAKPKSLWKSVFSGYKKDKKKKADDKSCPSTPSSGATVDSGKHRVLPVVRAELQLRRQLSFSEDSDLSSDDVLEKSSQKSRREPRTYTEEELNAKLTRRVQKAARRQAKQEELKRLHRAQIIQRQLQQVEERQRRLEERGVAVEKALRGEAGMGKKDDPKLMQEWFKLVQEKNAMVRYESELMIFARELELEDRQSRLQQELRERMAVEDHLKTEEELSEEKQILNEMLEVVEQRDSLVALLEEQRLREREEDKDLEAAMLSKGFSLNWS
# UniProt Q7Z7A3: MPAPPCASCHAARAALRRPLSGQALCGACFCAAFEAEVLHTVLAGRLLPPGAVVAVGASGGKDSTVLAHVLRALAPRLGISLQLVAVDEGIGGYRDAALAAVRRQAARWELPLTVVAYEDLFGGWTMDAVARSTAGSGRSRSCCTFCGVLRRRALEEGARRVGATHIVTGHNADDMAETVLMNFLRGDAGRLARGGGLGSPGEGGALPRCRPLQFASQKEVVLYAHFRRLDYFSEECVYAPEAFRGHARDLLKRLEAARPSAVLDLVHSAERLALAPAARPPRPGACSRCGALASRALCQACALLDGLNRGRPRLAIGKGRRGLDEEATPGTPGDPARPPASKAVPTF
# UniProt Q7L3V2: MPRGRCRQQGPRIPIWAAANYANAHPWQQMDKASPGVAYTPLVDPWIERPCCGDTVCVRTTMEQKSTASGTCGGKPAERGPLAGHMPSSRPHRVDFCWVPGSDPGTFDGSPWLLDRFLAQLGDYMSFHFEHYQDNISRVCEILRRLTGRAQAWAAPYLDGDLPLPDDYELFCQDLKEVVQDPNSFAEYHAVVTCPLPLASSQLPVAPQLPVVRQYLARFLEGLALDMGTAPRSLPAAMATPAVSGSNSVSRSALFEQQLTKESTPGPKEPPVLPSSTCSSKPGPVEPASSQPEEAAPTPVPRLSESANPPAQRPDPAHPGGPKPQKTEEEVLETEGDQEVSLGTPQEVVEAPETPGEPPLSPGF
# UniProt Q6UXG8: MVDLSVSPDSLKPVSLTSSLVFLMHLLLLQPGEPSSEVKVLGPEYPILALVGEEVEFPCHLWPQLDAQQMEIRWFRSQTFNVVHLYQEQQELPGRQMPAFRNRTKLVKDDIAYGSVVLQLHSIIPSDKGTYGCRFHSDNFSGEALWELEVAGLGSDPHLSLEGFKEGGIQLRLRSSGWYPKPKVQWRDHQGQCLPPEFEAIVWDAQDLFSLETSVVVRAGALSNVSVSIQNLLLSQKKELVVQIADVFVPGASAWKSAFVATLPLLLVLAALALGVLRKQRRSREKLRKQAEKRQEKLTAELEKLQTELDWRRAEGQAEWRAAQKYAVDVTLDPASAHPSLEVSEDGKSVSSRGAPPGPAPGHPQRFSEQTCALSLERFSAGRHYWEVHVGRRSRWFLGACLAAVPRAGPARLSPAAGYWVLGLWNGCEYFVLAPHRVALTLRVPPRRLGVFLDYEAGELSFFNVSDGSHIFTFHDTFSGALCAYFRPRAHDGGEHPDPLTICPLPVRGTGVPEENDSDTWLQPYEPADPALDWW
# Some of the results follow. Most entries show no effect beyond the scatter of the controls.
# Compound: Cc1nc(Nc2ncc(C(=O)Nc3c(C)cccc3Cl)s2)cc(N2CCN(CCO)CC2)n1 [dasatinib]
# Assay: log2 fold change of tryptic peptide abundance, ligand vs vehicle (limited proteolysis) (log2 ratio); higher = more trypsin-susceptible (destabilized)
# Conditions: ligand concentration: 5 uM; sample: K562 cleared lysate
row,Target,log2 fold change
1,"UniProt Q7Z6J8 (peptide sequence: GLQFVVGDGLHLR, peptide start residue: 70)",0.0764
2,"KCTD20 (peptide sequence: EYNFTRPNEK, peptide start residue: 152) (UniProt Q7Z5Y7)",-0.752
3,"UniProt Q6ZMI0 (peptide sequence: QREEIDTLK, peptide start residue: 759)",0.5
4,"UniProt Q7Z4I7 (peptide sequence: QWHVEHFVCAK, peptide start residue: 211)",-0.587
5,"UniProt Q6UX04 (peptide sequence: RSEEEEAPPDGAVAEYR, peptide start residue: 345)",0.294
6,"MICAL3 (peptide sequence: SPQDEGLHLLKPLSIPKR, peptide start residue: 1371) (UniProt Q7RTP6)",-0.703
7,"UniProt Q7Z7A3 (peptide sequence: RGLDEEATPGTPGDPARPPASK, peptide start residue: 322)",0.181
8,"RTL10 (peptide sequence: STASGTCGGKPAER, peptide start residue: 66) (UniProt Q7L3V2)",0.187
9,"UniProt Q6UXG8 (peptide sequence: LQTELDWR, peptide start residue: 305)",-0.0177
